US20010046977A1, “Use of alendronate for the prevention of osteoporosis” (MERCK & CO., Inc., priority 1996, published 2001)

Conditions: after four years; women 45-59 years, mostly early postmenopausal; ALN 2.5 or 5 mg per day vs placebo (placebo loses bone mineral density); differences statistically significant

NCCCC(O)(P(=O)(O)O)P(=O)(O)O [alendronate, 4-amino-1-hydroxybutylidene-1,1-bisphosphonic acid]
signs of osteoporosis, as measured by decreases in bone mineral density: not developing signs of osteoporosis
